PubChem BioAssay AID1159584 – Peter MacCallum Cancer Centre | 2016
Here is an unselected part of about 18,000 reagents. No sequences are given here. Not given: the amount of reagent, the time to read-out.

Screen: 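Genes whose loss is lethal only together with E-cadherin loss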 (primary screen)
Cells: human MCF10A breast epithelial cells, parental and CDH1-null
Reagents: siRNA against human genes
Measured: 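Cell viability by CellTiter-Glo ATP luminescence, each line scaled to the mean of mock wells across plates, then CDH1-null over parental ratio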
Reading the numbers: CDH1-null / parental viability ratio: higher = CDH1-null cells survive relatively better than parental; CDH1-null viability vs mock: higher = more viable CDH1-null cells; parental viability vs mock: higher = more viable parental cells

gene | CDH1-null / parental viability ratio | CDH1-null viability vs mock (fraction of mock) | parental viability vs mock (fraction of mock)
HOMEZ | 0.86 | 0.55 | 0.64
NOTCH1 | 1 | 1 | 1
CYP2U1 | 0.87 | 0.7 | 0.8
HASPIN | 0.89 | 0.68 | 0.76
SPAG7 | 0.95 | 0.7 | 0.74
NUP160 | 1.11 | 0.4 | 0.36
PRPF19 | 0.93 | 0.96 | 1.03
CDY2B | 1.47 | 0.66 | 0.45
SELPLG | 0.9 | 0.62 | 0.69
TBC1D3C | 1.01 | 0.82 | 0.81
BET1L | 1.83 | 0.77 | 0.42
CADM4 | 1.15 | 0.46 | 0.4
HEXIM2 | 1.06 | 0.55 | 0.52
CNOT12 | 0.92 | 0.24 | 0.26
DYNC1LI2 | 0.99 | 0.82 | 0.83
TMEM128 | 0.88 | 0.56 | 0.64
ZNF676 | 0.77 | 0.64 | 0.83
USP54 | 0.93 | 0.56 | 0.6
RTP4 | 0.82 | 0.54 | 0.66
LAMA1 | 1.09 | 0.82 | 0.75
NPY4R | 0.63 | 0.57 | 0.9
GEM | 0.97 | 0.7 | 0.72
SCN2B | 1.08 | 0.82 | 0.76
TMEM132D | 1 | 0.82 | 0.82
EDC3 | 1.17 | 0.42 | 0.36
HDLBP | 1.04 | 0.98 | 0.94
IGFBP7 | 1.03 | 0.6 | 0.58
IFNA5 | 0.88 | 0.57 | 0.65
PYCARD | 1.08 | 1.08 | 1
ADAMTS10 | 1.03 | 0.66 | 0.64
DDX23 | 1.42 | 0.68 | 0.48
PGF | 1.14 | 0.8 | 0.7
TMEM175 | 1.34 | 0.99 | 0.74
PCYT1A | 1.29 | 1.2 | 0.93
G6PC2 | 1.26 | 0.88 | 0.7
DLK2 | 1.2 | 1.06 | 0.88
BTN1A1 | 0.78 | 0.54 | 0.69
MAP3K21 | 0.95 | 0.76 | 0.8
GTF2A1L | 1.09 | 1.05 | 0.96
JARID2 | 1.25 | 0.81 | 0.65
OR52N5 | 1.03 | 0.72 | 0.7
LGMN | 1.2 | 0.89 | 0.74
MRPS17 | 1.38 | 0.66 | 0.48
RGS6 | 0.92 | 0.74 | 0.8
KRTAP5-8 | 1.19 | 0.92 | 0.77
ABCA12 | 0.84 | 0.74 | 0.88
